Data as given in PubChem BioAssay AID1487 (National Center for Advancing Translational Sciences (NCATS), 2009).
Several values for one entry are separate records, joined by “and”; a condition that tells them apart may be missing. Equal entries are not always repeated. This is one part of the list. These are further read-outs of the screen, such as a control signal, another cell line or another target. No call is given for them. The list favours compounds with an active or inconclusive main result. The note in brackets gives the kind of curve behind each potency; many fits are weak.

Experiment: qHTS Assay for Modulators of Lamin A Splicing
Conditions: HeLa LMNA splicing GFP/RFP minigene ratio, 48 h
Summary of the method: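 S3 HeLa stable clones carrying a lamin A-EGFP splicing minigene plus DsRed2 were seeded at 600 cells/well in Opti-MEM with 2% FBS, pin-dosed and incubated 48 h at 37°C. Acumen cytometry (488 nm) gave the GFP/RFP total-intensity ratio.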

[1] = measured here: RFP viability control channel
[2] = measured here: GFP splicing reporter channel

SMILES	AC50 [1]	AC50 [2]
Cc1ccc2c(Cl)cc(Cl)c(OCC(=O)Nc3cc(S(=O)(=O)N(C)C)ccc3C)c2n1	35.5 µM [rising, partial curve]	
CC(=O)c1cccc(NC(=S)NC(=O)c2ccc(Br)cc2)c1	35.5 µM [rising, single point]	35.5 µM [rising, single point]
Nc1ccc(S(=O)(=O)c2ccc(N)cc2)cc1	1.41 µM [falling, single point] and 7.08 µM [falling, full curve, poor fit]	1.26 µM [falling, single point]
O=S(=O)(c1ccc(OCC(O)CN2CCN(c3ccccc3O)CC2)cc1)N1CCOCC1 (stereo unspecified)	35.5 µM [rising, single point]	
O=C1OC(c2ccccc2)c2ccc3ccccc3c21 (stereo unspecified)	31.6 µM [rising, single point]	31.6 µM [rising, single point]
O=Cc1ccc(-c2ccc(F)cc2)o1	0.00355 µM [falling, full curve]	
N#C/C(=C\c1ccccc1)C(=O)N(c1ccccn1)C1CCCCC1	15.8 µM [rising, single point]	12.6 µM [rising, single point]
C1=C(CCNc2nnnn2-c2ccccc2)CCCC1	31.6 µM [rising, single point]	35.5 µM [rising, single point]
CCC(C)C(=O)Nc1nc(C)c(-c2csc(Nc3ccccc3OC)n2)s1 (stereo unspecified)	31.6 µM [rising, single point]	
CCSC1=NC2(CCN(C(=O)NC3CCCCC3)CC2)N=C1c1ccc(C)cc1	0.0224 µM [falling, full curve]	
Cc1cc(/C=C(\C#N)C(=O)NCc2cccs2)c(C)n1-c1ccccc1F		35.5 µM [rising, single point]
CN=c1sc2ccccc2n1CC(O)c1ccccc1 (stereo unspecified)	12.6 µM [falling, partial curve]	22.4 µM [falling, partial curve]
O=C(Nc1nc(-c2ccc(Cl)cc2Cl)cs1)C1CCCO1 (stereo unspecified)	22.4 µM [rising, single point]	
Cc1cccc(NC(=O)CSc2nnc(-c3ccccc3C)o2)c1	15.8 µM [rising, partial curve, poor fit]	
CCC(C)Sc1cc(C)c(C#N)c2nc3ccccc3n12 (stereo unspecified)	1.26 µM [rising, full curve]	
Cc1[nH]n(-c2ccc(Cl)cc2)c(=O)c1C=Nc1ccc(S(=O)(=O)N2CCOCC2)cc1	14.1 µM [rising, single point]	
CCCCOc1ccc(C(=O)NCC2(c3ccccc3)CCOCC2)cc1		20 µM [rising, single point]
Cc1nn(Cc2ccccc2)c2sc(C(=O)NCc3cccnc3)cc12	12.6 µM [rising, partial curve]	2.82 µM [rising, partial curve]
CCOC(=O)c1c(NC(=O)CN2CCN(C(=O)c3ccco3)CC2)sc2c1CCCC2	12.6 µM [rising, single point]	
Nc1ccccc1C(=O)N/N=C1\C2CN3CCN(C2)CC1(c1ccccc1)C3	0.0158 µM [falling, full curve, poor fit]	

An excerpt from above in order of SMILES length, ascending.
SMILES	AC50 [1]	AC50 [2]
O=Cc1ccc(-c2ccc(F)cc2)o1	0.00355 µM [falling, full curve]	
CN=c1sc2ccccc2n1CC(O)c1ccccc1 (stereo unspecified)	12.6 µM [falling, partial curve]	22.4 µM [falling, partial curve]
Nc1ccc(S(=O)(=O)c2ccc(N)cc2)cc1	1.41 µM [falling, single point] and 7.08 µM [falling, full curve, poor fit]	1.26 µM [falling, single point]
CCC(C)Sc1cc(C)c(C#N)c2nc3ccccc3n12 (stereo unspecified)	1.26 µM [rising, full curve]	
O=C(Nc1nc(-c2ccc(Cl)cc2Cl)cs1)C1CCCO1 (stereo unspecified)	22.4 µM [rising, single point]	
Cc1cccc(NC(=O)CSc2nnc(-c3ccccc3C)o2)c1	15.8 µM [rising, partial curve, poor fit]	
CCCCOc1ccc(C(=O)NCC2(c3ccccc3)CCOCC2)cc1		20 µM [rising, single point]
Cc1nn(Cc2ccccc2)c2sc(C(=O)NCc3cccnc3)cc12	12.6 µM [rising, partial curve]	2.82 µM [rising, partial curve]
CCC(C)C(=O)Nc1nc(C)c(-c2csc(Nc3ccccc3OC)n2)s1 (stereo unspecified)	31.6 µM [rising, single point]	
Cc1cc(/C=C(\C#N)C(=O)NCc2cccs2)c(C)n1-c1ccccc1F		35.5 µM [rising, single point]
CCSC1=NC2(CCN(C(=O)NC3CCCCC3)CC2)N=C1c1ccc(C)cc1	0.0224 µM [falling, full curve]	
CCOC(=O)c1c(NC(=O)CN2CCN(C(=O)c3ccco3)CC2)sc2c1CCCC2	12.6 µM [rising, single point]	
O=S(=O)(c1ccc(OCC(O)CN2CCN(c3ccccc3O)CC2)cc1)N1CCOCC1 (stereo unspecified)	35.5 µM [rising, single point]	
Cc1ccc2c(Cl)cc(Cl)c(OCC(=O)Nc3cc(S(=O)(=O)N(C)C)ccc3C)c2n1	35.5 µM [rising, partial curve]	
Cc1[nH]n(-c2ccc(Cl)cc2)c(=O)c1C=Nc1ccc(S(=O)(=O)N2CCOCC2)cc1	14.1 µM [rising, single point]	

(listing goes on)

SMILES	AC50 [1]	AC50 [2]
Cn1c(=O)c2ncn(CC(=O)Nc3cc(C(F)(F)F)ccc3N3CCOCC3)c2n(C)c1=O	0.0251 µM [falling, full curve, poor fit]	
N#C/C(=C\c1ccccc1)C(=O)Nc1nncs1	0.02 µM [rising, full curve, poor fit]	
S=C(NC1CCCCC1)N1CCN(C/C=C/c2ccccc2)CC1	28.2 µM [rising, partial curve]	15.8 µM [rising, partial curve, poor fit]
CCn1c2ccccc2c2nnc(SCC(=O)Nc3c(C)n(C)n(-c4ccccc4)c3=O)nc21	31.6 µM [rising, single point]	
CNc1nc(N)c(C(=O)C23CC4CC(CC(C4)C2)C3)s1	1.41 µM [falling, partial curve]	1.12 µM [falling, partial curve]
NC(=S)N/N=C1/CCSc2ccc3ccccc3c21	14.1 µM [falling, single point]	
O=C(O)c1ccccc1SCC(=O)N1CCOCC1		0.355 µM [rising, full curve, poor fit]
COc1ccc(/C(C)=N/OCC(=O)Nc2nc3ccccc3s2)cc1	14.1 µM [rising, single point]	11.2 µM [rising, single point]
Cc1csc2nc(COC(=O)c3ccccc3NC(=O)c3ccccc3Cl)cc(=O)n12	0.224 µM [rising, partial curve, poor fit]	0.355 µM [rising, full curve]
CCOC(=O)c1[nH]c(C)c(CCC(=O)Nc2cc(Cl)ccc2C)c1C		0.251 µM [rising, full curve, poor fit]
Cc1csc(NC(=O)c2nc(-c3ccccc3)n(-c3ccccc3)n2)n1	11.2 µM [rising, single point]	
COc1ccc(C(=O)NCC(c2cccnc2)N2CCc3ccccc3C2)cc1 (stereo unspecified)	0.00316 µM [falling, full curve, poor fit]	
COc1cc(OC)cc(C(=O)Nn2c(C)nc3ccccc3c2=O)c1	17.8 µM [rising, single point]	
Cc1cc(NC(=O)c2cc(-c3ccncc3)nc3c(C)cccc23)no1	35.5 µM [falling, single point]	20 µM [falling, single point]
O=S(=O)(NCC(c1ccco1)N1CCN(c2ccc(F)cc2)CC1)c1ccc2c(c1)OCCO2 (stereo unspecified)	22.4 µM [rising, partial curve]	25.1 µM [rising, single point]
O=C(NCCS(=O)(=O)N1CCN(c2ccccc2F)CC1)c1cc(=O)c2ccccc2o1	0.00355 µM [falling, full curve, poor fit]	0.01 µM [falling, full curve, poor fit]
CC1CCCN(c2ccc(C(=O)NCc3ccc4c(c3)OCO4)cc2[N+](=O)[O-])C1 (stereo unspecified)	35.5 µM [rising, single point]	
NCCCCCCCCCCN	0.0178 µM [falling, full curve, poor fit]	
COc1ccc(-c2cc(=O)oc3cc(OCC(=O)c4cccc([N+](=O)[O-])c4)ccc23)cc1	7.94 µM [rising, partial curve]	
COc1ccc(-c2nnc(SCc3cccnc3)o2)cc1	15.8 µM [rising, single point]	31.6 µM [rising, single point]

SMILES	AC50 [1]	AC50 [2]
O=C(CCc1ccccc1)Nc1ccc(F)c([N+](=O)[O-])c1	0.0891 µM [falling, full curve, poor fit]	
O=c1c(S(=O)(=O)c2ccccc2)cn(Cc2ccc(F)cc2)c2cc(N3CCCC3)c(F)cc12		1.41 µM [rising, single point]
CC(C)(C)c1ccc(OCc2ccc(C(=O)N/N=C3\CC4CC=CC34)cc2)cc1 (stereo unspecified)	15.8 µM [rising, single point]	
C(#Cc1ccccc1)C[N+]1(CC#Cc2cccc3ccccc23)CCCC1		12.6 µM [rising, single point]
O=C(/C=C/c1ccc([N+](=O)[O-])cc1)N1CCN(S(=O)(=O)c2cccs2)CC1		35.5 µM [rising, single point]
COCCCn1c(C)c(C(C)=O)cc(NC(=O)c2ccccc2)c1=O		1.12 µM [rising, single point]
COc1ccccc1-c1cc(C(F)(F)F)nc(N2CCOCC2)n1	17.8 µM [falling, single point]	
COCCNC(=O)C(c1ccc(Cl)cc1)N(C(=O)Cn1nnc2ccccc21)c1cccnc1 (stereo unspecified)	1.26 µM [falling, full curve, poor fit]	
CCCC1CC(C)(c2csc(Nc3ccc(OCC)cc3)n2)OC1=O (stereo unspecified)	20 µM [rising, single point]	
O=C(NC(NC(=S)Nc1ccccc1O)C(Cl)(Cl)Cl)c1ccco1 (stereo unspecified)	25.1 µM [rising, single point]	
CN(CC(=O)N1CCCCC1)S(=O)(=O)c1cccc2cccnc12	20 µM [rising, partial curve, poor fit]	
CC(=O)Nc1cc(S(=O)(=O)Nc2cccc(C)c2)c(C)cc1C		0.708 µM [falling, single point]
CCOC(=O)c1cc(S(=O)(=O)N2CCN(c3cccc(C)c3)C(C)C2)[nH]n1 (stereo unspecified)	22.4 µM [rising, single point]	
COc1ccccc1CNc1nc(-c2cccc(C#N)c2)nc2ccccc12	22.4 µM [falling, single point]	28.2 µM [falling, single point]
Cc1ccc2nc3sc(C(=O)Nc4ccc(F)cc4)cc3cc2c1	0.00112 µM [falling, full curve]	
COc1ccc(N2CCN(C(=S)Nc3ccc(S(N)(=O)=O)cc3)CC2)cc1	10 µM [falling, partial curve]	17.8 µM [falling, partial curve, poor fit]
Cc1ccc(C(=O)n2c3ccccc3c3ccccc32)cc1	3.98 µM [rising, full curve, poor fit]	
Cc1nn(C)c(-c2n[nH]c(=S)n2-c2ccccc2)c1Cl	0.1 µM [falling, full curve, poor fit]	5.01 µM [falling, partial curve]
